Experimental data published in article PMC5459885, “Relaxin-Family Peptide Receptors 1 and 2 Are Fully Functional in the Bovine” (Frontiers in Physiology, 2017).

Assay: INSL3 concentration in bovine follicular fluid (TRFIA)

B1: bovine INSL3 (protein, UniProt O77801 22-66; O77801 27-66; O77801 107-132, looked up)
Insulin-like 3 B' chain: GPAAAQEAPEKLCGHHFVRALVRLCGGPRWSSEEDGRPVAGGDRE
Insulin-like 3 B chain: QEAPEKLCGHHFVRALVRLCGGPRWSSEEDGRPVAGGDRE
Insulin-like 3 A chain: ATAINPARHCCLSGCTRQDLLTLCPH
notes: bovine insulin-like peptide 3, cognate ligand of bovine RXFP2
With B1 the “difference in total INSL3 per follicle, medium-sized vs large follicles” value (3–6 mm (n = 115) vs 6–10 mm (n = 17)) was “not significantly different”, the “in vivo concentration of INSL3 in follicular fluid” value (large follicles (6–10 mm), assuming antral fluid volume 180 μl) was 136 ng/mL and the “Total INSL3 per follicle” value (large follicles (diameter 6–10 mm), n = 17) was 24.5 ± 43.1 ng. For the same molecule, the “in vivo concentration of INSL3 in follicular fluid” value (medium-sized follicles (3–6 mm), assuming antral fluid volume 35 μl) was 376 ng/mL and the “Total INSL3 per follicle” value (medium-sized follicles (diameter 3–6 mm), n = 115) was 13.2 ± 13.8 ng.
